# According to patent publication US9763961B2, “Compositions that modulate the activity of estrogen receptors and estrogen-related receptors and methods for use” (CITY OF HOPE, priority 2005, dated 2017):
# Chains of the proteins cited; added tags and fusions are not shown. Residues count along the entry.
# UniProt O95718, whole entry: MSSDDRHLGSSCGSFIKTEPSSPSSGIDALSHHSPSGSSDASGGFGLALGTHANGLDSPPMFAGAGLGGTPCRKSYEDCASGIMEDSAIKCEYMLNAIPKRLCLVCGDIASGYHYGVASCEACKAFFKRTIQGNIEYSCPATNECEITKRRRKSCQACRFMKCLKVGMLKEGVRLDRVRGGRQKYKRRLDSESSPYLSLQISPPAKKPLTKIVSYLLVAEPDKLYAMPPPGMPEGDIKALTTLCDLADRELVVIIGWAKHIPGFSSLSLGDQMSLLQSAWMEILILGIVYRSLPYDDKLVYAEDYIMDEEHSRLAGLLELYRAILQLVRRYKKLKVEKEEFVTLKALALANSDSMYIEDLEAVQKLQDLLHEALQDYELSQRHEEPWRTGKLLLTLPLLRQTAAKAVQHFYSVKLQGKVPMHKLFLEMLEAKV
# UniProt P62508, whole entry: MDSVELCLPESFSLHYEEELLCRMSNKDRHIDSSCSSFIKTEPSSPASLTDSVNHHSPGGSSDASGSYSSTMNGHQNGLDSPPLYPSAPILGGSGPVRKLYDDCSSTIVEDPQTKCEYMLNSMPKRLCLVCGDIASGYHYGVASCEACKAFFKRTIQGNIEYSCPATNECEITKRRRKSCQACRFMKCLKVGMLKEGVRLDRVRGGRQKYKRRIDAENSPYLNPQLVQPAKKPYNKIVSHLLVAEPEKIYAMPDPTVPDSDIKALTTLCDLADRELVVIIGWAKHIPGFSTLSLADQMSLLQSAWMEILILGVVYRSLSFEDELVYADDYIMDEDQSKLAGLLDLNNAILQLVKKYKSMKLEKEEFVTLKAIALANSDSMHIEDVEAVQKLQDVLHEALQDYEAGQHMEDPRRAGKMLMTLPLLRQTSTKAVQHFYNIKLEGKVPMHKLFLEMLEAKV
# UniProt P11474, whole entry: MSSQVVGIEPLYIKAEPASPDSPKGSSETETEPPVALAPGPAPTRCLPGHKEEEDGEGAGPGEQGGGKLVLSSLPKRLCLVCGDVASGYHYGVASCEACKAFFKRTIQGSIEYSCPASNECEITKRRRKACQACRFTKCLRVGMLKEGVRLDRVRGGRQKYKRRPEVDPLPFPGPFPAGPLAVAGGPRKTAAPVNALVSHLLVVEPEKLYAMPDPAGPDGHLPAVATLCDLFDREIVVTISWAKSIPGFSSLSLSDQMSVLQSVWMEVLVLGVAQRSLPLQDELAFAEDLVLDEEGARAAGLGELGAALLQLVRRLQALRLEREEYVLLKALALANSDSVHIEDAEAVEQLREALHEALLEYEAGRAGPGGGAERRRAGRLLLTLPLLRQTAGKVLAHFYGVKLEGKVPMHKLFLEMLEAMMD
# UniProt P11474, 193-421 limits assumed: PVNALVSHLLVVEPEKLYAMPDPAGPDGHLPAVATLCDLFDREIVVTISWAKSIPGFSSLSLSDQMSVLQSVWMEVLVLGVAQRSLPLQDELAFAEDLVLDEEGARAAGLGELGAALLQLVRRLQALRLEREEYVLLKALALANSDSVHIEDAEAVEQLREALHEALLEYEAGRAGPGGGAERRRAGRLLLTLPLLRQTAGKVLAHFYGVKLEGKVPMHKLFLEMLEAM
# UniProt Q92731, whole entry: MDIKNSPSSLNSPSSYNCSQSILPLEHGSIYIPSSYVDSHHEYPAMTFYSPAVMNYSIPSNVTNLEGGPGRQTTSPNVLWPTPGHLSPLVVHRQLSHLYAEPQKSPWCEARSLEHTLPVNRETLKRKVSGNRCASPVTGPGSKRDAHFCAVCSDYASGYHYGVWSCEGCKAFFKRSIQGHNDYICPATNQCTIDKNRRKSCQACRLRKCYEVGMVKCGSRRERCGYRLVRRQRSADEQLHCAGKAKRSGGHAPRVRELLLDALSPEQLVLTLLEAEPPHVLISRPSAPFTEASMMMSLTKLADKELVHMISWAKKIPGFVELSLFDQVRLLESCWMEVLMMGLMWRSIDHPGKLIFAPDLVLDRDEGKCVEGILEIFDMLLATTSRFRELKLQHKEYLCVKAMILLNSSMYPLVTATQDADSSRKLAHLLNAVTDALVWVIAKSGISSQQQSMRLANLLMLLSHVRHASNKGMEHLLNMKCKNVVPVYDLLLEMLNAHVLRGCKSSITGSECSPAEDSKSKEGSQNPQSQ
# UniProt P03372, whole entry: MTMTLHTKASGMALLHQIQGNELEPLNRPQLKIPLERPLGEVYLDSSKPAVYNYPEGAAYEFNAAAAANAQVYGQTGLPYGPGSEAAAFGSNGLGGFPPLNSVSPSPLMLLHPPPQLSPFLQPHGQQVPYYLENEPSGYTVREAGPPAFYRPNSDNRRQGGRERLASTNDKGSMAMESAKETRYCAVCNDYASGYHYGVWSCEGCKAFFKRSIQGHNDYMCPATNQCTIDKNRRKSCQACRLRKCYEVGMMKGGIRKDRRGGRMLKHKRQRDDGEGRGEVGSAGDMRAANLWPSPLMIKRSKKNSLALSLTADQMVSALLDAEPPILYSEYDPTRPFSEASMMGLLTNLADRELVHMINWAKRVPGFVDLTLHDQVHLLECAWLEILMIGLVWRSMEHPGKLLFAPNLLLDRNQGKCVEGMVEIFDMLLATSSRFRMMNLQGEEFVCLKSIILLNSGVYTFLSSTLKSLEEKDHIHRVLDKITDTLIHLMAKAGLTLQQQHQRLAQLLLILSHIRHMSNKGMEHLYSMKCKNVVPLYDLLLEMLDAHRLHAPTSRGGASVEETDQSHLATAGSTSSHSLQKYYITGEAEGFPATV
# pIC50: −log10 of the molar value. The structures given here were assigned with low confidence; some may be wrong.
# Tests used:
# ERRβ = ERRβ (Homo sapiens, UniProt O95718); assay: Transient transfection luciferase assay with pSG5-ERRb and SF1-SV40 reporter in HeLa cells; conditions: for pIC50: read-out: IC50, ERRβ, HeLa cells, 24 h, average of at least two experiments; for Antagonistic properties on ERRb (in words): transient transfection
# ERRγ = ERRγ (Homo sapiens, UniProt P62508); assay: Transient transfection luciferase assay with pSG5-ERRg and SF1-SV40 reporter in HeLa cells; conditions: for pIC50: read-out: IC50, ERRγ, HeLa cells, 24 h, average of at least two experiments; for Antagonistic properties on ERRg (in words): transient transfection
# [1] = target: GAL4-human ERRα LBD fusion (Homo sapiens, UniProt P11474); assay: Transient transfection luciferase assay, GAL4-human ERRα LBD fusion with Gal4-TK-Luc reporter in HeLa cells; conditions: read-out: IC50, Gal4-TK-Luc, pM-ERRα LBD, 24 h, mean ± SD
# human ERRα-1 = human ERRα-1 (Homo sapiens, UniProt P11474); assay: Transient transfection luciferase assay, full length human ERRα with SF1-SV40-Luc reporter in HeLa cells; conditions: for Antagonism of constitutive activity of ERRα (in words): SF1 binding site reporter, FIG. 1; for pIC50: read-out: IC50, SF1-SV40-Luc, pSG5-ERRα, 24 h, mean ± SD
# ERβ = ERβ (Homo sapiens, UniProt Q92731); assay: Transient transfection luciferase assay with pCI-ERb and ERE-SV40 reporter in HeLa cells, with 100 pM estradiol; conditions: for pIC50: read-out: IC50, ERβ, HeLa cells, in the presence of 100 pM of estradiol, 24 h; for Antagonistic properties on ERb (in words): transient transfection
# ERα = ERα (Homo sapiens, UniProt P03372); assay: Transient transfection luciferase assay with pSG5-ERa and ERE-SV40 reporter in HeLa cells, with 100 pM estradiol; conditions: for pIC50: read-out: IC50, ERα, HeLa cells, in the presence of 100 pM of estradiol, 24 h; for Antagonistic properties on ERa (in words): transient transfection
SMILES,pIC50 (ERRβ),Antagonistic properties on ERRb (in words) (ERRβ),pIC50 (ERRγ),Antagonistic properties on ERRg (in words) (ERRγ),IC50 [1],Antagonism of constitutive activity of ERRα (in words) (human ERRα-1),pIC50 (human ERRα-1),pIC50 (ERβ),Antagonistic properties on ERb (in words) (ERβ),pIC50 (ERα),Antagonistic properties on ERa (in words) (ERα)
COc1cc(O)c(C(=O)/C=C/c2ccccc2OC)c(OC)c1,5.46,showed antagonistic properties,5.17,showed antagonistic properties,1.9e+06 pM,antagonists of ERRα,5.19,5.22,showed antagonistic properties,5.57,showed antagonistic properties
COc1cc(O)c(C(=O)/C=C/c2ccc(OCc3ccccc3)c(OC)c2)c(OC)c1,5.05,showed antagonistic properties,5.02,showed antagonistic properties,2.4e+06 pM,antagonists of ERRα,5.06,5.15,showed antagonistic properties,5.02,showed antagonistic properties
COc1ccc(C(=O)/C=C/c2cccc(OC)c2OC)c(O)c1,5.12,showed antagonistic properties,5.10,showed antagonistic properties,2e+06 pM,antagonists of ERRα,5.11,4.80,showed antagonistic properties,5.24,showed antagonistic properties
COc1ccc(C(=O)/C=C/c2ccc(OC)cc2OC)c(O)c1,5.10,showed antagonistic properties,5.00,showed antagonistic properties,3.6e+06 pM,antagonists of ERRα,4.73,4.70,showed antagonistic properties,4.90,showed antagonistic properties
